PubChem BioAssay AID504764 | Drosophila RNAi Screening Center | 2011
The deposit covers about 22,000 reagents; below is a random part of those with a known target gene and a result. Over the whole deposit, 403 (1.9%) got an active call. 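Unnormalised raw counts per well; ratio z-scores behind the hit calls and whether each hit raises or lowers signal are not deposited.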 A number with no mark means an inactive call. Reagent sequences are not shown. The record does not give: the amount of reagent.

- Test: 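Genome-wide screen for regulators of Notch-driven gene expression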 (primary screen)
- Cell system: Drosophila Kc167 cells
- Knock-down reagent: long dsRNA against Drosophila genes
- Time to read-out: about 5 days (4 days dsRNA, then 24 h after transfection)
- Conditions: transfection of constitutively active membrane-tethered Notch lacking the extracellular domain, read 24 h later
- Read-out: 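Firefly luciferase from an E(spl)m3 reporter with active Notch, plus control-promoter and uninduced reporter wells for normalisation; unnormalised counts, duplicate wells a and b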
- Direction: induced reporter light, run 1, well a and induced reporter light, run 1, well b: higher = more light from the Notch target reporter with active Notch; control promoter light, run 1, well a and control promoter light, run 1, well b: higher = more light from the viral control promoter (cell number, transfection, viability); uninduced reporter light, run 1, well a: higher = more light from the Notch target reporter without active Notch
- Call rule: 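Wells with low control signal or poorly matching duplicates excluded; duplicates averaged; per source plate, z beyond ±2 for induced/control log2 ratio or beyond ±1.8 for induced/uninduced marks a hit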
- Meaning of the calls: active = modifier hit (raised or lowered Notch signal); inactive = not a hit

| predicted target | dsRNA | induced reporter light, run 1, well a | induced reporter light, run 1, well b | control promoter light, run 1, well a | control promoter light, run 1, well b | uninduced reporter light, run 1, well a |
| --- | --- | --- | --- | --- | --- | --- |
| tor (torso) | DRSC07707 | 1.96e5 | 1.50e5 | 2.12e5 | 1.70e5 | 15050 |
| mRpL41 (mitochondrial ribosomal protein L41) | DRSC06257 | 66765 | 88670 | 1.08e5 | 94235 | 7470 |
| CG13114 | DRSC02212 | 1.14e5 | 1.42e5 | 74830 | 92235 | 15305 |
| CG10660 | DRSC09769 | 1.25e5 | 97290 | 1.70e5 | 1.11e5 | 6765 |
| CG34202 | DRSC05907 | 1.44e5 | 1.27e5 | 2.06e5 | 2.02e5 | 11682 |
| AANATL4 (Arylalkylamine N-acetyltransferase-like 4) | DRSC06774 | 37370 | 38795 | 39845 | 42340 | 3632 |
| CG34050 (retired record) | DRSC09067 | 3575 | 2565 | 4060 | 4255 | 2730 |
| pigs (pickled eggs) | DRSC17472 | 72470 | 55590 | 73450 | 74110 | 4965 |
| pigs (pickled eggs) | DRSC18334 | 1.46e5 | 1.65e5 | 3.03e5 | 3.35e5 | 10650 |
| pigs (pickled eggs) | DRSC18335 | 1.41e5 | 1.50e5 | 2.92e5 | 2.63e5 | 11535 |
| Pgi (Phosphoglucose isomerase) | DRSC07507 | 1.71e5 | 1.42e5 | 1.48e5 | 1.40e5 | 14965 |
| Bcat (Branched chain amino acid transaminase) | DRSC19756 | 1.16e5 | 1.27e5 | 1.38e5 | 1.38e5 | 8642 |
| CG45263 | DRSC12682 | 1.43e5 | 1.18e5 | 1.13e5 | 1.77e5 | 12955 |
| CG45263 | DRSC14360 | 82200 | 80205 | 63025 | 54855 | 6245 |
| CG45263 | DRSC14361 | 83750 | 1.02e5 | 92860 | 74115 | 4600 |
| CG45263 | DRSC14363 | 31775 | 44425 | 27820 | 19778 | 2690 |
| CG34161 | DRSC01132 | 1.58e5 | 1.35e5 | 1.84e5 | 1.71e5 | 11420 |
| CG30428 | DRSC04041 | 1.45e5 | 1.66e5 | 2.76e5 | 2.35e5 | 9810 |
| Idua (alpha-L-iduronidase) | DRSC02941 | 2.17e5 | 2.16e5 | 2.04e5 | 1.84e5 | 17342 |
| Pka-C3 (Protein kinase, cAMP-dependent, catalytic subunit 3) | DRSC09402 | 1.86e5 | 2.10e5 | 2.83e5 | 2.32e5 | 19330 |
| Pka-C3 (Protein kinase, cAMP-dependent, catalytic subunit 3) | DRSC11254 | 2.50e5 | 2.11e5 | 2.56e5 | 2.36e5 | 11175 |
| CG11275 | DRSC04095 | 13255 | 17235 | 17590 | 21930 | 710 |
| CG32532 | DRSC19556 | 82480 | 88685 | 79120 | 1.23e5 | 7750 |
| CG32532 | DRSC19557 | 1.18e5 | 1.03e5 | 1.11e5 | 1.18e5 | 10630 |
| CG32532 | DRSC19558 | 1.11e5 | 85640 | 1.28e5 | 1.17e5 | 11445 |
| Ranbp21 | DRSC19447 | 99435 | 82760 | 70280 | 33580 | 6885 |
| Lcp65Aa | DRSC11209 | 2.16e5 | 1.71e5 | 2.05e5 | 1.55e5 | 9032 |
| Plc21C (Phospholipase C at 21C) | DRSC00773 | 1.96e5 | 2.38e5 | 2.45e5 | 2.73e5 | 20385 |
| Sox14 (Sox box protein 14) | DRSC04656 | 1.80e5 | 1.94e5 | 1.63e5 | 1.49e5 | 11870 |
| Mov10 (Mov10 RISC complex RNA helicase) | DRSC07012 | 99620 | 99030 | 1.57e5 | 1.81e5 | 8440 |
| dom (domino) | DRSC04558 | 85575 | 88555 | 96035 | 1.10e5 | 8780 |
| dom (domino) | DRSC04559 | 71360 | 47095 | 75635 | 88605 | 4630 |
| Aladin | DRSC18121 | 1.93e5 | 1.64e5 | 1.96e5 | 2.23e5 | 11965 |
| CG13872 | DRSC06431 | 68340 | 44255 | 43720 | 42945 | 5505 |
| CG11425 | DRSC11657 | 1.27e5 | 1.09e5 | 1.33e5 | 1.17e5 | 10310 |
| cert (ceramide transfer protein) | DRSC09674 | 74635 | 79300 | 71305 | 22135 | 8080 |
| CG8188 | DRSC20090 | 68055 | 75730 | 72240 | 66935 | 9745 |
| qin | DRSC14782 | 2.62e5 | 1.96e5 | 2.04e5 | 1.68e5 | 14005 |
| Alg13 (Alg13 UDP-N-acetylglucosaminyltransferase subunit) | DRSC14864 | 1.13e5 | 1.37e5 | 1.86e5 | 1.61e5 | 10935 |
| Ntl (Neurotransmitter transporter-like) | DRSC03003 | 1.60e5 | 1.72e5 | 2.55e5 | 2.55e5 | 12300 |
| Mgat4b | DRSC10256 | 2.14e5 | 1.73e5 | 3.27e5 | 2.61e5 | 10765 |
| kar (karmoisin) | DRSC14496 | 1.34e5 | 1.15e5 | 87550 | 70555 | 11770 |
| TrpRS (Tryptophanyl-tRNA synthetase) | DRSC14097 | 76295 | 1.09e5 | 1.18e5 | 1.16e5 | 8760 |
| CG14722 | DRSC14944 | 99930 | 1.05e5 | 68105 | 70460 | 8640 |
| Brr2 (Brr2 U5 snRNP complex subunit) | DRSC10559 | 27200 | 23950 | 15065 | 15350 | 1575 |
| egg (eggless) | DRSC04119 | 1.46e5 | 1.45e5 | 1.39e5 | 1.52e5 | 11950 |
| Fkbp14 (FK506-binding protein 14) | DRSC04615 | 1.51e5 | 1.76e5 | 1.25e5 | 1.35e5 | 12695 |
| CG4678 | DRSC19911 | 73865 | 59615 | 1.03e5 | 64525 | 9570 |
| CG4678 | DRSC19912 | 85235 | 61045 | 62525 | 47945 | 9310 |
| CG8010 | DRSC20072 | 73965 | 71790 | 53005 | 33185 | 5530 |
| CG4328 | DRSC10410 | 11795 | 10838 | 20560 | 14630 | 5065 |
| dsd (distracted) | DRSC13829 | 2.68e5 | 1.74e5 | 1.87e5 | 2.37e5 | 18335 |
| dsd (distracted) | DRSC15850 | 39740 | 41110 | 43455 | 45835 | 3130 |
| ome (omega) | DRSC09322 | 1.45e5 | 1.50e5 | 2.27e5 | 2.49e5 | 15870 |
| ome (omega) | DRSC10282 | 1.36e5 | 1.82e5 | 2.32e5 | 2.53e5 | 7520 |
| ome (omega) | DRSC11380 | 1.55e5 | 1.13e5 | 1.68e5 | 1.83e5 | 7195 |
| Snx27 (Sorting nexin 27) | DRSC17786 | 1.49e5 | 1.45e5 | 2.54e5 | 2.37e5 | 10890 |
| Snx27 (Sorting nexin 27) | DRSC18282 | 1.26e5 | 1.35e5 | 2.45e5 | 2.56e5 | 10285 |
| Snx27 (Sorting nexin 27) | DRSC18284 | 1.27e5 | 1.27e5 | 2.53e5 | 2.97e5 | 9825 |
| CG3598 | DRSC18471 | 1.10e5 | 1.08e5 | 1.82e5 | 1.70e5 | 8790 |
| CG2577 | DRSC19863 | 66190 | 65845 | 97490 | 1.22e5 | 5265 |
| CG8745 | DRSC11033 | 1.12e5 | 1.24e5 | 85480 | 1.25e5 | 10250 |
| CG8745 | DRSC11034 | 2.20e5 | 1.70e5 | 2.79e5 | 3.28e5 | 11965 |
| Spn100A (Serpin 100A) | DRSC14596 | 1.65e5 | 1.50e5 | 2.36e5 | 2.26e5 | 11550 |
